Measurements as given in US20240226123A9, “USE OF CANNABIDIVARIN IN THE TREATMENT OF SEIZURES ASSOCIATED WITH CANINE EPILEPSY” (GW Research Limited, priority 2021, published 2024).

Tested on: spike-and-wave discharges induced by gamma-butyrolactone (GBL)
Assay: GBL induced absence seizure model, quantified EEG (spectral power, cortex)
Assay type: in vivo, beagle dogs
[1] = Diazepam 2 mg/kg p.o., mean 10-minute periods

CN1C(=O)CN=C(c2ccccc2)c2cc(Cl)ccc21 [Diazepam]
spectral power on the gamma frequency band (Diazepam 2 mg/kg p.o. 60 minutes before GBL, time-interval 0-10 minutes, p<0.001): significantly increased | spectral power on the gamma frequency band (Diazepam 2 mg/kg p.o. 60 minutes before GBL, time-interval 10-20 minutes, p<0.01): significantly increased | spectral power on the gamma frequency band (Diazepam 2 mg/kg p.o. 60 minutes before GBL, time-interval 20-30 minutes, p<0.05): significantly increased | spectral power on alpha frequency band (Diazepam 2 mg/kg p.o. 60 minutes before GBL, time-interval 20-30 minutes, vs vehicle controls, p<0.05): significantly decreased | spectral power of lower frequency bands (delta, theta and alpha) (Diazepam 2 mg/kg p.o., across all four time periods): decreased | spectral power on 3-6 Hz frequency band (Diazepam 2 mg/kg p.o., following GBL administration, vs vehicle control): lowered | spectral power of high frequency bands [1]: increases | spectral power of lower frequency bands [1]: decreases
